These results are taken from the supplement of paper PMC10849652.

By UniProt entry, the sequences of proteins in these tests, tags left out. Where a name states a change or a piece, a line headed by the entry shows the natural chain unless it says otherwise.
UniProt O60218, whole entry, looked up: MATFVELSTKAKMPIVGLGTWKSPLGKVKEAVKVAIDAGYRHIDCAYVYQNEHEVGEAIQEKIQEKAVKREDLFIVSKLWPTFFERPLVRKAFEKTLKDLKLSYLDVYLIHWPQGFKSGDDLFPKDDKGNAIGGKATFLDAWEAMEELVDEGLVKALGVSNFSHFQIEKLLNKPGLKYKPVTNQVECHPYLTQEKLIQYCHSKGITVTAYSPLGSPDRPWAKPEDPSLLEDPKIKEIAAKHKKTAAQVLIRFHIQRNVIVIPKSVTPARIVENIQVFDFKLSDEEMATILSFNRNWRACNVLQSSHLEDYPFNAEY
UniProt Q63HM1: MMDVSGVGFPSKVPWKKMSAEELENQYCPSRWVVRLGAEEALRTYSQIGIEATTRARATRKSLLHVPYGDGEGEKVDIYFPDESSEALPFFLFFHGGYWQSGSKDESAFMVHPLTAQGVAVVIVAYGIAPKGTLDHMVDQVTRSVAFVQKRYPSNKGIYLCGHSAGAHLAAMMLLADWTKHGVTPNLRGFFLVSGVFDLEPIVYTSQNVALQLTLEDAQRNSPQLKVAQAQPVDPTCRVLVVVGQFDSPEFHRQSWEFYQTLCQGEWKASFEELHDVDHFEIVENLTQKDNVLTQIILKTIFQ
UniProt Q8WYP5: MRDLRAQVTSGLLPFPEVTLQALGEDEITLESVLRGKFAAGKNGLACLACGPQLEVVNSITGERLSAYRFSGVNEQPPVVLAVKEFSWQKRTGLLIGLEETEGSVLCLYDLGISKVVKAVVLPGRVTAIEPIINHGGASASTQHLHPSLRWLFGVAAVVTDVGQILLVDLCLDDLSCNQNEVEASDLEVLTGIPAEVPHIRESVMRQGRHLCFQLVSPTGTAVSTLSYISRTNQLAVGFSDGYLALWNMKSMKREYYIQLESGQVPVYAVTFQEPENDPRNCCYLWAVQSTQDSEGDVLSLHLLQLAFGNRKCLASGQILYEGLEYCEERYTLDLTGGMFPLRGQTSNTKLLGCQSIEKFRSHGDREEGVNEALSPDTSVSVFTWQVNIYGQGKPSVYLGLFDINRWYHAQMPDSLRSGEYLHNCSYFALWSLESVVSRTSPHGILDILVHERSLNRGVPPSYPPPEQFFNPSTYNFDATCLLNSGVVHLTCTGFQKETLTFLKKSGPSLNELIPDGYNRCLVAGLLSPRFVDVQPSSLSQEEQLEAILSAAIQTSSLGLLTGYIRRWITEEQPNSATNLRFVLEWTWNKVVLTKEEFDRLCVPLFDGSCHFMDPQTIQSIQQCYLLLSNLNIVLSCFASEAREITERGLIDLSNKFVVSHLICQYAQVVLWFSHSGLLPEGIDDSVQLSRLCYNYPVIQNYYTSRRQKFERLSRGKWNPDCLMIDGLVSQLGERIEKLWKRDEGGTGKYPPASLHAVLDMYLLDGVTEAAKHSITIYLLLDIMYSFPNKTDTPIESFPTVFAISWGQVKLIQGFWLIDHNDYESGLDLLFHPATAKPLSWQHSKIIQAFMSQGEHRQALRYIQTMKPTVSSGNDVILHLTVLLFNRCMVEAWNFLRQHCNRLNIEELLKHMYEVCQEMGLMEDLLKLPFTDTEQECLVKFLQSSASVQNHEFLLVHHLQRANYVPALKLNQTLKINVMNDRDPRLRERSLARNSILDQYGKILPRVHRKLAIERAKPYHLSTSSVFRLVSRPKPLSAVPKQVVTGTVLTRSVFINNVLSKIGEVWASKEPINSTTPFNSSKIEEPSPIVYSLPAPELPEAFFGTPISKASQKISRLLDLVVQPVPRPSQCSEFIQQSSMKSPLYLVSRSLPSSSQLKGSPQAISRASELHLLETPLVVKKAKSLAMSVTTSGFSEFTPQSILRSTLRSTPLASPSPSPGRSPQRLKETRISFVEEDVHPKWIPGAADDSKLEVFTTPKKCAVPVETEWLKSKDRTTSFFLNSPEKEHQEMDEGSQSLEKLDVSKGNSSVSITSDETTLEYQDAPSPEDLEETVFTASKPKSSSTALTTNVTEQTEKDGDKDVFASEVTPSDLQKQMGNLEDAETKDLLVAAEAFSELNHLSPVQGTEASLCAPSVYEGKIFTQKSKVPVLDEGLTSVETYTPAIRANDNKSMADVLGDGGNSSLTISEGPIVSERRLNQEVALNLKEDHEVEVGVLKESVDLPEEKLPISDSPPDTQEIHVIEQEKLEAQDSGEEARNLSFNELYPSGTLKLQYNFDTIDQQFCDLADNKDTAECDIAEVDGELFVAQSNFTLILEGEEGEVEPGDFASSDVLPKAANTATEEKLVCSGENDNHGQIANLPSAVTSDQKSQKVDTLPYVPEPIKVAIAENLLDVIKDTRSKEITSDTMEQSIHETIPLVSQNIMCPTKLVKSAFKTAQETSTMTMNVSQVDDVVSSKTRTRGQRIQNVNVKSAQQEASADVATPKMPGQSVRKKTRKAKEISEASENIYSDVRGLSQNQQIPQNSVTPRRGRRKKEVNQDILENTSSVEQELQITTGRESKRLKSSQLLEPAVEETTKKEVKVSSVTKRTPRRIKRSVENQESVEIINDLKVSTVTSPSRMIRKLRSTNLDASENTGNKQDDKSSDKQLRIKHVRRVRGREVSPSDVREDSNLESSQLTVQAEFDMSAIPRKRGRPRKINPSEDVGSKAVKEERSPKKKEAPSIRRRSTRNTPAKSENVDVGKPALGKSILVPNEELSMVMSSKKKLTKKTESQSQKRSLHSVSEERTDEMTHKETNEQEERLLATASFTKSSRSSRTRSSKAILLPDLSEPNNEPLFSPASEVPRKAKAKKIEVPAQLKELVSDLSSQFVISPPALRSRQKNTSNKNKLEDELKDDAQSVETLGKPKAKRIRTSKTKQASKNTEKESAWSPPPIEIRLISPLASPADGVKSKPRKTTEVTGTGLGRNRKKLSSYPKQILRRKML
UniProt P55008: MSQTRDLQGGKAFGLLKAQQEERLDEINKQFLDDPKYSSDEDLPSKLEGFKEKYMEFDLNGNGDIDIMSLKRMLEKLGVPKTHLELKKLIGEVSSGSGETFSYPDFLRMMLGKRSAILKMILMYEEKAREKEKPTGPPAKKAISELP
UniProt Q8N157: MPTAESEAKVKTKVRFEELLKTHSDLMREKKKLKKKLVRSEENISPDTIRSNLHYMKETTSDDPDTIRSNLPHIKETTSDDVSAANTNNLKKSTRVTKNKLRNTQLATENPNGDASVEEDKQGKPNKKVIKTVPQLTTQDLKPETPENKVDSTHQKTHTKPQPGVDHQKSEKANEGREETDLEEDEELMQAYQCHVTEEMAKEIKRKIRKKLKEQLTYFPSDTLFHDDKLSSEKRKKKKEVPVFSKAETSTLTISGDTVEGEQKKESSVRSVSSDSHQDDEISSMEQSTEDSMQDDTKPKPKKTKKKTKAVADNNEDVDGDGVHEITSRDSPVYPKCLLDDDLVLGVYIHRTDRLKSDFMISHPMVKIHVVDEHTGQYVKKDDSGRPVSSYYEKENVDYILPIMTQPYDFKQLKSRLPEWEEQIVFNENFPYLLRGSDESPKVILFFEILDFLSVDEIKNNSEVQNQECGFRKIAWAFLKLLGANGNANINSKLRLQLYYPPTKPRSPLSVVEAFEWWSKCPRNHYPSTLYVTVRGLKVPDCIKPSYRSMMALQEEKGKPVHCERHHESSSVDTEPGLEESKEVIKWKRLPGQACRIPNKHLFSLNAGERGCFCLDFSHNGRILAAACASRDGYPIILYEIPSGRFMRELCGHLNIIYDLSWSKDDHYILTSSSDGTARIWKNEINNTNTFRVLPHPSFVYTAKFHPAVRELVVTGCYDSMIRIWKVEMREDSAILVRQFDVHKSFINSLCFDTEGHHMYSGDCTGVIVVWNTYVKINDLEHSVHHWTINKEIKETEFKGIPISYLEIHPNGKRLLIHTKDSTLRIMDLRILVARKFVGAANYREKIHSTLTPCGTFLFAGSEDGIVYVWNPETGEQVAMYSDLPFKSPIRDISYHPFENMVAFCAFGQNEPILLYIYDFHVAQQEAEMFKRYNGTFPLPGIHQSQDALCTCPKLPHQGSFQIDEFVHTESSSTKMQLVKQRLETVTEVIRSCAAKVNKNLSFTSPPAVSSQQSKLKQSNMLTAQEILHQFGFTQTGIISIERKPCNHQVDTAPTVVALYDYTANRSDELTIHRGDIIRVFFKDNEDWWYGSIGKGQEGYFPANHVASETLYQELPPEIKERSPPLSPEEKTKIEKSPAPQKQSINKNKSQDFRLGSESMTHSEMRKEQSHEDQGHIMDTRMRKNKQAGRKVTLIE

Some of the results follow.

Experiment in all cases: log2 fold change, soluble protein after heating vs DMSO (PISA); higher = thermal stabilisation; K562 lysate, 10 uM; active = over 0.2 and 3.5 SD of the protein, either way, in both replicates (recomputed)
Compound in assay [1]: Cc1sc2c(c1C)C(c1ccc(Cl)cc1)=N[C@@H](CC(=O)OC(C)(C)C)c1nnc(C)n1-2
An outline of the steps: (§1)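 The values are log-two fold changes in thermal stability compared with solvent controls and come from duplicates. They were obtained by TMTpro 16plex LC-MS/MS, with channel sums equalised, on the supernatant after 21,000xg for 90 min. That supernatant came from crude K562 extract at 1 mg/mL protein treated with 10 μM compound for 30 min, heated for 3 min across 48°C-58°C, pooled and brought to 0.5% NP-40 at 4°C.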

Compound in assay [2]: CC1=C2C(=CC=C1)N=C(N(C2=O)C3=CC=CC=C3C)CN4C=NC5=C(N=CN=C54)N
Put shortly: as §1

Compound in assay [3]: c1ccc([C@@H]2C[C@H]2NC2CCNCC2)cc1
Put shortly:
as §1

Take AJUBA (UniProt Q96IF1): the log2 fold change in assay [1] is inactive: 0.199.

On to AKR1B10 (UniProt O60218), for which, in assay [1], the log2 fold change was inactive: -0.196.

On to ACTB, A0A2R8YEA7, for which the values for the log2 fold change in assay [2] and in assay [3] were inactive: -0.048 and inactive: -0.229, respectively.

In the case of AFMID isoform 2 (UniProt Q63HM1), the log2 fold change was inactive: 0.043 in assay [2] and inactive: -0.009 in assay [3].

In the case of AHCTF1 isoform 2 (UniProt Q8WYP5), the log2 fold change in assay [3] is inactive: 0.142.

AIF1 (UniProt P55008): the log2 fold change is inactive: 0.183 in assay [2], inactive: 0.063 in assay [1] and inactive: 0.045 in assay [3].

AHI1 (UniProt Q8N157): the log2 fold change in assay [2] is inactive: 0.068.
